# Measurements taken from PubChem BioAssay AID1671190 (National Center for Advancing Translational Sciences (NCATS), 2021).
# Protein sequences, listed by entry. Tags and fused reporters are not part of them.
# UniProt P18054, whole entry, looked up: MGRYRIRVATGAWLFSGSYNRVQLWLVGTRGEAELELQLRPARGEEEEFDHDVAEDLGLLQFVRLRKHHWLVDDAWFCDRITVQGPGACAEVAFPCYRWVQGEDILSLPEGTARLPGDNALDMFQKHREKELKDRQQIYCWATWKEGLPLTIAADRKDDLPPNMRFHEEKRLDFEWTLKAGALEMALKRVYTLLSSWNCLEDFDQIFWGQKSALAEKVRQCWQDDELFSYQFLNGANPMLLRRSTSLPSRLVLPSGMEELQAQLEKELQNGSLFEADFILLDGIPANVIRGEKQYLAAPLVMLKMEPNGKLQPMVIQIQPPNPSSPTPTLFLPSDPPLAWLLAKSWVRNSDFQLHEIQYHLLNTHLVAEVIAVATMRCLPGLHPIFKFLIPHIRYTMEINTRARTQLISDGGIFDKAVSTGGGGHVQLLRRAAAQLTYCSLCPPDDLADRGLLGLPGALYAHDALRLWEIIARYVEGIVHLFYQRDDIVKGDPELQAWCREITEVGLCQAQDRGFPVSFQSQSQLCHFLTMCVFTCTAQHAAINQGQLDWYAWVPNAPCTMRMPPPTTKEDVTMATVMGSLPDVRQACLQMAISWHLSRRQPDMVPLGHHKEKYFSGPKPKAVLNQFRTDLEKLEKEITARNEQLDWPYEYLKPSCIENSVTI
# The campaign covered roughly 580,000 compounds. About 6,100 (1.1%) were called active. The shares of active, inactive and inconclusive entries below differ from those in the screen. Calls follow the shape of the dose curve; as a rule, active = well fitted inhibition curve with a large enough effect; inconclusive = small, poorly fitted or top-dose-only effect, or another doubt; inactive = no such curve, though single readings can be large or run the other way. Potencies beside an inconclusive call are fits to weak or partial responses and may not hold up.
# Target: Polyunsaturated fatty acid lipoxygenase ALOX12 (Homo sapiens) (UniProt P18054)
# Assay: Primary qHTS assay for inhibitors of human arachidonate 12S-lipoxygenase (ALOX12): Round 2
# Conditions: purified 12hLO, xylenol orange hydroperoxide absorbance; activity change, negative = inhibition: at 108 µM (top of the series) unless noted
# In short: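 Purified human 12hLO (150 nM final) in 25 mM Hepes, 0.01% Triton X-100, pH 7.0 was preincubated 15 min at room temperature with compound. Then 40 uM arachidonic acid was added, 30 min. Hydroperoxide was read by Fe-XO absorbance ratio 573/405 nm.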
# % is scaled to controls: 0 for no effect and ±100 for the full control effect; potency is read from the fitted curve at half-maximal effect.
SMILES,"activity change, negative = inhibition",Potency
CCOC(=O)c1sc2ncnc(N3CCN(C)CC3)c2c1C,inactive: -0.795%,–
O=C(O)c1cccc2[nH]c(C(F)(F)F)nc12,–,"inconclusive: 3.55 µM [inhibitor, full curve, poor fit]"
COc1nccc(N2CCC(CC(=O)NCc3ccc(F)c(Cl)c3)CC2)n1,inactive: 1.71%,–
Cc1ccc(CN2CCNC(=O)C2CC(=O)O)cc1 (stereo not drawn),–,inactive
COc1ccc(Cl)cc1Nc1cc(C)nc2ncnn12,–,"inconclusive: 31.6 µM [inhibitor, partial curve, poor fit]"
CCCCCCCCc1ccc(/C(C=[N+](C)C)=C/N(C)C)cc1,–,"inconclusive: 22.4 µM [inhibitor, single point]"
CCNC(=O)/C(C#N)=C/c1c(N2CCN(c3ccccc3)CC2)nc2c(C)cccn2c1=O,–,"inconclusive: 89.1 µM [inhibitor, partial curve, poor fit]"
COc1ccc(N2c3ccccc3CN(Cc3ccccc3)[C@@H](C)[C@H]2Cc2c(C)cccc2C)cc1,–,"inconclusive: 89.1 µM [inhibitor, single point]"
O=C(O)C1CCc2nnc(C3CCN(C(=O)Cc4ccccc4)CC3)n21 (stereo not drawn),–,"inconclusive: 3.98 µM [inhibitor, full curve, poor fit]"
Cc1cc(Nc2cccc(C(F)(F)F)c2)nc2ccc(NC(=O)c3ccc(N(C)C)cc3)cc12,inactive: -11.1%,–
CCOC(=O)c1sc(N2C(=O)C(O)=C(C(=O)c3ccco3)C2c2cccc(Cl)c2)nc1C (stereo not drawn),–,"inconclusive: 1 µM [inhibitor, full curve, poor fit]"
Cn1c(=O)c2ncn(CC(=O)N/N=C/C=C/c3ccccc3)c2n(C)c1=O,–,"inconclusive: 22.4 µM [inhibitor, single point]"
O=[N+]([O-])c1ccc(S(=O)(=O)N2CCN(c3ccnc4cc(Cl)ccc34)CC2)cc1,inactive: -11.2%,–
Clc1ccc2c(c1)C1OCCC1C(c1ccco1)N2 (stereo not drawn),–,"inconclusive: 1.12 µM [inhibitor, full curve, poor fit]"
O=C(NCCc1ccccc1)c1ccc2c(=O)[nH]c3c(C(=O)NCC4CCCO4)sc(=S)n3c2c1 (stereo not drawn),–,"inconclusive: 39.8 µM [inhibitor, partial curve]"
O=C(Nc1ccc(Cl)cc1)c1ccc(CN2CCc3ccccc3C2)cc1,–,"inconclusive: 31.6 µM [inhibitor, single point]"
O=C(CN1CCOCC1)Nc1ncc(Br)cc1Br,–,"inconclusive: 39.8 µM [inhibitor, partial curve, poor fit]"
Cc1cccc(C)c1Nc1c(-c2ccsc2)nc2ccccn12,–,"inconclusive: 0.794 µM [inhibitor, full curve, poor fit]"
Oc1c(Br)cc(/C=N/NC(=S)NCc2ccco2)cc1Br,–,"inconclusive: 25.1 µM [inhibitor, single point]"
Cn1c(-c2ccc([N+](=O)[O-])cc2)nc2ccccc21,inactive: 3.97%,–
NC(=O)c1nsc(C(=O)N(c2cccc(O)c2)C(C(=O)NC2CCCC2)c2ccc(Cl)cc2)c1N (stereo not drawn),inactive: -30.7%,–
COc1ccc(OC)c(N=Cc2c(O)[nH]c3ccccc23)c1,–,"inconclusive: 14.1 µM [inhibitor, partial curve, poor fit]"

# Reprinted at random: three compounds from above, in no set order.
SMILES,"activity change, negative = inhibition",Potency
CCNC(=O)/C(C#N)=C/c1c(N2CCN(c3ccccc3)CC2)nc2c(C)cccn2c1=O,–,"inconclusive: 89.1 µM [inhibitor, partial curve, poor fit]"
Clc1ccc2c(c1)C1OCCC1C(c1ccco1)N2 (stereo not drawn),–,"inconclusive: 1.12 µM [inhibitor, full curve, poor fit]"
Cc1ccc(CN2CCNC(=O)C2CC(=O)O)cc1 (stereo not drawn),–,inactive

# Carrying on.

SMILES,"activity change, negative = inhibition",Potency
COc1ccc(C[C@](C)(N)C(=O)O)cc1OC,–,"inconclusive: 31.6 µM [inhibitor, partial curve, poor fit]"
CCN(CC)c1ccc(/C=N/NC(=S)NCc2ccccc2)c(O)c1,–,"inconclusive: 44.7 µM [inhibitor, partial curve, poor fit]"
CSCc1c(C(=O)Nc2ccccc2N2CCOCC2)oc2ccccc12,–,"inconclusive: 44.7 µM [inhibitor, partial curve, poor fit]"
CCN(CC)c1ccc(CNc2nc3ccccc3n2CCN2CCCCC2)cc1,–,"inconclusive: 50.1 µM [inhibitor, partial curve, poor fit]"
O=c1oc2ccccc2cc1-c1cn2ccccc2n1,–,inactive
Cc1ccc(S(=O)(=O)Nc2ccc3[nH]c(C)cc3c2)cc1,–,"inconclusive: 50.1 µM [inhibitor, partial curve, poor fit]"
Cc1ccc(OCC(=O)Nc2ccc3oc(-c4ccccc4)nc3c2)c(-n2cnnc2)c1,–,"inconclusive: 89.1 µM [inhibitor, single point]"
CC(C)NC(=S)N/N=C1\CCc2ccccc21,–,"inconclusive: 50.1 µM [inhibitor, partial curve, poor fit]"
CCOC(=O)c1ccc(NC(=O)c2cccc(C)c2[N+](=O)[O-])cc1,–,"inconclusive: 14.1 µM [inhibitor, partial curve, poor fit]"
Cc1ccc2oc(-c3ccc(C)c(NC(=O)c4ccccc4[N+](=O)[O-])c3)nc2c1,inactive: 1.45%,–
O=C(O)CN1C(=O)N/C(=C\c2cccn2-c2ccc(P(=O)(O)O)cc2)C1=O,–,"inconclusive: 50.1 µM [inhibitor, partial curve, poor fit]"
O=C(OC(C(=O)Nc1ccc(Cl)cc1C(F)(F)F)c1ccccc1)c1ccccc1O (stereo not drawn),inactive: -64.7%,–
CCOC(=O)c1nnn(-c2ccc([N+](=O)[O-])cc2[N+](=O)[O-])c1C,–,"inconclusive: 44.7 µM [inhibitor, partial curve, poor fit]"
S=C1NC2=C(CCc3ccccc32)C(c2ccccc2)N1 (stereo not drawn),–,active: 15.8 µM
Cc1ccccc1C(=O)N1CCN(c2nc(N3CCOCC3)nc(N3CCOCC3)n2)CC1,–,"inconclusive: 2.24 µM [inhibitor, full curve, poor fit]"
COC(=O)c1ccc(C(=O)OC)c(NC(=O)CN2CCN(c3ccccc3OC)CC2)c1,inactive: -25.8%,–
CCc1cc(C(=O)NC(C)c2ccccc2)sc1C (stereo not drawn),–,"inconclusive: 100 µM [inhibitor, partial curve, poor fit]"
Nc1ccc(-c2cnc(-c3ccc(N)cc3)nc2)cc1,inactive: 0.0879%,–
Cc1ccccc1C(=O)NC1CCN(c2nc3ncccc3o2)CC1,inactive: 3.66% [at 176 µM],–
COc1ccc(-c2cc3ccccc3[nH]2)cc1,–,"inconclusive: 50.1 µM [inhibitor, partial curve, poor fit]"
CNc1ccccc1C(C)(C)c1cc(-c2ccc(F)cc2)no1,inactive: 0.523%,–
